This is one part of the list.
target: OsWRKY34 (Oryza sativa, UniProt Q0JBA9 1-250); assay: protein-binding microarray (RPBM); PBS, 2% BSA, 51.3 ng/ul salmon testes DNA, 50 uM zinc acetate, 200 nM TF, 25 C, 1 h; high values mean tight binding; conditions: protein: recombinant; tags: N-terminal polyhistidine and DsRed monomer fusion (pET32a); label: CyDye5-dUTP incorporated in the synthesized complementary strand; 3' TTTTT single-stranded linker to array surface; dsDNA, one strand shown
Outline: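 Using Ni–NTA, transcription factors fused N-terminally to polyhistidine and DsRed were purified after expression in E. coli BL21-CodonPlus. These were incubated at 200 nM with a blocked, double-stranded custom Agilent array for 1 h at 25 °C in a buffer containing 50 µM zinc acetate, and the array was washed. The binding signal is per-feature fluorescence intensity (arbitrary units) on an Axon 4000B scanner.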

Amino acid sequences for entries named in this document (tags omitted).
UniProt Q0JBA9, entry or part of it: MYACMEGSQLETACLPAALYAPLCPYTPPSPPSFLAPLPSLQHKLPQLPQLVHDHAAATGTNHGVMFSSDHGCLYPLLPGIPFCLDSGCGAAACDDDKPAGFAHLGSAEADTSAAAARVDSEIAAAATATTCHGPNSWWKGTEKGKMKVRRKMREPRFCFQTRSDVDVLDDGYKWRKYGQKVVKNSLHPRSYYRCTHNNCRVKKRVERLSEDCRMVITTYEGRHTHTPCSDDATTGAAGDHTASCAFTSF

Sequence	binding signal
TTGACTTTTGATTATTCTTCTCGTTGCAAATATAAACTGCCGGAGTCACCTAGTGCAG	9080 fluorescence intensity (a.u.)
GCCGACTCCGCCGATATCTCCGCCGCCTGCGCAACCACACCGGAGTCACCTAGTGCAG	9290 fluorescence intensity (a.u.)
GTTTTCTAGTTTTTTTTATCTTGTCCGTCCTCACATCACCCGGAGTCACCTAGTGCAG	9560 fluorescence intensity (a.u.)
CGCCATGGTTATATTTGTGGTATCCTTTTCTATGTTTAAGCGGAGTCACCTAGTGCAG	10200 fluorescence intensity (a.u.)
TAATGGATTTTGAGTTTTTATTTGCAACATTTGATTACTCCGGAGTCACCTAGTGCAG	9540 fluorescence intensity (a.u.)
CTACTGCCAATCCCGGCCCACGGCCCAATCCAGCCGCGCCCGGAGTCACCTAGTGCAG	9510 fluorescence intensity (a.u.)
ACCTCTATTTTATTTTAAGTGCAGTTGTGGTTTCCATATCCGGAGTCACCTAGTGCAG	8350 fluorescence intensity (a.u.)
CTTCTCTTGCTTTCCTCCACTTTTGTTGCTCTCAGCTTTTCGGAGTCACCTAGTGCAG	10800 fluorescence intensity (a.u.)
TGGTGGTGGGGAGGGTATTTATACCGGCTGACGAGGCGTGCGGAGTCACCTAGTGCAG	9080 fluorescence intensity (a.u.)
GAATGAACTCCACTTTGGGCCATATCCTATCATTAGGACACGGAGTCACCTAGTGCAG	10300 fluorescence intensity (a.u.)
TTTTTTATTTTTGCAACTTGGGCTCTCTTATCTTTATTTCCGGAGTCACCTAGTGCAG	14400 fluorescence intensity (a.u.)
GGTTTTGTACGGTTTTTCACGGTTACCGCGGTAACCGTTGCGGAGTCACCTAGTGCAG	10000 fluorescence intensity (a.u.)
GTGAGGTGTCTTTGTATATATCCTTTTTGACCTTTCTAGCCGGAGTCACCTAGTGCAG	16100 fluorescence intensity (a.u.)
GTACGACAACCACATACAACCCATGTCTGACTCAACTAGTCGGAGTCACCTAGTGCAG	8420 fluorescence intensity (a.u.)
TTTCCGCATTTCCGCTCCTCTCTTTTTTACCCTTGACATGCGGAGTCACCTAGTGCAG	8530 fluorescence intensity (a.u.)
ATCAATATGAATTTGTGCTGTCTGGTATGAGTTATTCCAACGGAGTCACCTAGTGCAG	8080 fluorescence intensity (a.u.)
TAGCGAGGTACCTATCATGACTTCGTCAGTCTCATATTTCCGGAGTCACCTAGTGCAG	9490 fluorescence intensity (a.u.)
AAGAAGCATTTGGCTGGTTTTTTTTGCATATAGGTCCCTTCGGAGTCACCTAGTGCAG	8090 fluorescence intensity (a.u.)
TGGAGAGCGTTGCTTTTTTTGGGCGGGTTTGGATTTTTATCGGAGTCACCTAGTGCAG	21600 fluorescence intensity (a.u.)
ATCTCGCTTACGCTCTCACGCTGTCGCCATCTCGCGCCACCGGAGTCACCTAGTGCAG	8340 fluorescence intensity (a.u.)
CGTCTACCAACAACTAACCGCCATCTCTCTCCTCGCTTTTCGGAGTCACCTAGTGCAG	11200 fluorescence intensity (a.u.)
ACCGTCTCTTTCTTGTTGCAGAGCGCCGCGCCCAACCGGCCGGAGTCACCTAGTGCAG	8460 fluorescence intensity (a.u.)
GTTTCCTTTCCCCGCGGATTAATAAACACTCGTCGAGCAACGGAGTCACCTAGTGCAG	9710 fluorescence intensity (a.u.)
CCAATATCACGTTGTCCTAGCTCTGCCAACGACTTCATCTCGGAGTCACCTAGTGCAG	8320 fluorescence intensity (a.u.)
TATATTCATTACTCCGTCCCTTAATATAAGAGATTTTGACCGGAGTCACCTAGTGCAG	8040 fluorescence intensity (a.u.)
GGAGTGGTGGCGTGGTGTGTGGGTTCGGAGATGGATTCTACGGAGTCACCTAGTGCAG	8800 fluorescence intensity (a.u.)
TGTGCTCCAACAGTTTAAAGTCAGAATAGCATTTCTTTTTCGGAGTCACCTAGTGCAG	8450 fluorescence intensity (a.u.)

Sequence	binding signal
CTCCACCTGTCGCCTAAACCCTAGCTCGCATCTCGAGGCACGGAGTCACCTAGTGCAG	8940 fluorescence intensity (a.u.)
AGTTGTCCTGCTTTTTTGCTTTCCTAATCTGTTTCCATTTCGGAGTCACCTAGTGCAG	13300 fluorescence intensity (a.u.)
CTCAAACCCTCGCTTCCGCCGACCACACGGCCGCACCATGCGGAGTCACCTAGTGCAG	10500 fluorescence intensity (a.u.)
TTACATTTCTATCAAAATCTCATGTTTTTCTTATTCCTACCGGAGTCACCTAGTGCAG	9600 fluorescence intensity (a.u.)
CTATCCGGTATCTAATTCTTTGTACTCTCCACTTACCTCTCGGAGTCACCTAGTGCAG	11900 fluorescence intensity (a.u.)
TTAGAAGTGCTTCATGGGTTTGGTTCTACTTCTGTTCTTTCGGAGTCACCTAGTGCAG	13000 fluorescence intensity (a.u.)
GGCACAAACACCTACACGGCTACACCTCATGAGTCATGATCGGAGTCACCTAGTGCAG	8290 fluorescence intensity (a.u.)
ATTTATATTTGTAACTGTTTTTCTATTATGTGTTTCCTTCCGGAGTCACCTAGTGCAG	8720 fluorescence intensity (a.u.)
TCCCACGACCACCTCGCCTCGCCACCATATCTGCAGCTCCCGGAGTCACCTAGTGCAG	12100 fluorescence intensity (a.u.)
ATGAAGCAACATTAACGCTAGGTTTTTATCTGTTTAAGCCCGGAGTCACCTAGTGCAG	8510 fluorescence intensity (a.u.)
TTCCCGCGTTTAATTAGTACGTATCACCTCTCATGCATTTCGGAGTCACCTAGTGCAG	12300 fluorescence intensity (a.u.)
GTCAACTACAGGATCATCCATGTGATTTCCTGCTTCTTCTCGGAGTCACCTAGTGCAG	8910 fluorescence intensity (a.u.)
GGCTCCCTGGTAGGCCCGAAACCCTCACCTCGTTCTCTATCGGAGTCACCTAGTGCAG	8330 fluorescence intensity (a.u.)
TCTCTCTCGTCTCTCCTCTCTCGTCTCGTGTATAAATTTCCGGAGTCACCTAGTGCAG	8800 fluorescence intensity (a.u.)
ATCAGAAACAGTACGTGCCACTATGCATGCAAATTAATCACGGAGTCACCTAGTGCAG	8120 fluorescence intensity (a.u.)
CCCACTTCTCCTCATCCCAATCTCGAATCCTCTGACTCCGCGGAGTCACCTAGTGCAG	8830 fluorescence intensity (a.u.)
TGACACATGAGGTTCTTTTTTTTTCTTTTGTACTCTTCTCCGGAGTCACCTAGTGCAG	13500 fluorescence intensity (a.u.)
TCACCAAACCGTTTCATCCATTCTCTTTTCTGGATTTAAACGGAGTCACCTAGTGCAG	10500 fluorescence intensity (a.u.)
GCGGTTCGAACGCGCGCGGGTGCTGACTTGGCGTTGACCTCGGAGTCACCTAGTGCAG	10900 fluorescence intensity (a.u.)
TCCATGTGCTCCAACCTTGAGGAATTGCCTCGTTCCATATCGGAGTCACCTAGTGCAG	9130 fluorescence intensity (a.u.)
CGCCGCTTTTCTCTCTCATCTTTTATCTCATTAAAATATGCGGAGTCACCTAGTGCAG	8040 fluorescence intensity (a.u.)
ACGCTGACGCAGATCAACCAACCACTACTACCGCCCGCAACGGAGTCACCTAGTGCAG	9430 fluorescence intensity (a.u.)
TTTCTCCAGCTAGCCAGCGCGGTGCTTTGACTTTGTCATCCGGAGTCACCTAGTGCAG	9110 fluorescence intensity (a.u.)
CCGCACCACCACCGCCTCCCCTCCGTTTCCCCTCCCTCACCGGAGTCACCTAGTGCAG	9690 fluorescence intensity (a.u.)
CCTTGTGTACTCTCGTGCTACTCTAGTTTCCATTCCATTTCGGAGTCACCTAGTGCAG	10600 fluorescence intensity (a.u.)
GCTTTTCTCTTCCTTTTCGCTCGCTCTCAAGGCCCATAACCGGAGTCACCTAGTGCAG	9530 fluorescence intensity (a.u.)
GATCTCTCCGGGACTATCTATCTCCATTTCTCTCCAAGGCCGGAGTCACCTAGTGCAG	9560 fluorescence intensity (a.u.)

Looked up one by one from above (two):
Sequence	binding signal
CTCAAACCCTCGCTTCCGCCGACCACACGGCCGCACCATGCGGAGTCACCTAGTGCAG	10500 fluorescence intensity (a.u.)
ACGCTGACGCAGATCAACCAACCACTACTACCGCCCGCAACGGAGTCACCTAGTGCAG	9430 fluorescence intensity (a.u.)

An excerpt of these results, comma-delimited:
Sequence,binding signal
TTCCCGCGTTTAATTAGTACGTATCACCTCTCATGCATTTCGGAGTCACCTAGTGCAG,12300 fluorescence intensity (a.u.)
TCTCTCTCGTCTCTCCTCTCTCGTCTCGTGTATAAATTTCCGGAGTCACCTAGTGCAG,8800 fluorescence intensity (a.u.)
